This note sets out measurements from article PMC7278938, “The MKK-Dependent Phosphorylation of p38α Is Augmented by Arginine Methylation on Arg49/Arg149 during Erythroid Differentiation” (International Journal of Molecular Sciences, 2020).

Protein sequences, listed by entry. Tags and fused reporters are not part of them.
UniProt Q16539: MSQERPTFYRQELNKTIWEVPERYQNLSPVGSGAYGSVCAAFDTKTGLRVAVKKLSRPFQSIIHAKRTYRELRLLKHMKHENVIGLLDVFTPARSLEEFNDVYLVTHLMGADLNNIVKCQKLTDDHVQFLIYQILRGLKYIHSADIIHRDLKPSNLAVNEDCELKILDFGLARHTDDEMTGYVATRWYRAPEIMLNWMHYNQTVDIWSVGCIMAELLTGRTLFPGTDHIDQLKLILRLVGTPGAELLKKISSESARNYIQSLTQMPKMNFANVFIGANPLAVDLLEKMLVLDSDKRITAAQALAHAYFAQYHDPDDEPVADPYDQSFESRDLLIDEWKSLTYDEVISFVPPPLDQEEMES

Results are given in words; binding and its absence hold for the method and conditions named. In cells and extracts the contact can be indirect. Some binding calls cover weakened binding; strength is not graded here.

This assay has as its target Flag-p38α wild type (UniProt Q16539 1-360). Description: co-IP; Flag-p38α immunoprecipitated with anti-Flag antibodies and protein G agarose at 4 °C from lysates (1 mg) of p38α-knockdown K562 cells after AraC (1 μM, 5 h); lysis buffer 150 mM NaCl, 20 mM Tris pH 7.4, 0.2% Triton X-100; partners detected by Western blot and quantified; in Figure 6D with or without HA-PRMT1. (In general: In western blotting, separated proteins are transferred to a membrane and probed.)

B1: MAPK kinase 3 (MKK3) (enzyme, human (endogenous in K562), UniProt P46734 1-347, looked up)
chain: MESPASSQPASMPQSKGKSKRKKDLRISCMSKPPAPNPTPPRNLDSRTFITIGDRNFEVEADDLVTISELGRGAYGVVEKVRHAQSGTIMAVKRIRATVNSQEQKRLLMDLDINMRTVDCFYTVTFYGALFREGDVWICMELMDTSLDKFYRKVLDKNMTIPEDILGEIAVSIVRALEHLHSKLSVIHRDVKPSNVLINKEGHVKMCDFGISGYLVDSVAKTMDAGCKPYMAPERINPELNQKGYNVKSDVWSLGITMIEMAILRFPYESWGTPFQQLKQVVEEPSPQLPADRFSPEFVDFTAQCLRKNPAERMSYLELMEHPFFTLHKTKKTDIAAFVKEILGEDS
notes: MKK3 (MAPK kinase 3), endogenous in human K562 cells, detected with anti-MKK3 (Cell Signaling #5674); source: endogenous, K562 lysate
For B1, the binding result is “binds”.
